Experimental data as given in patent US11246836B2, “Intramuscular depot of decoquinate compositions and method of prophylaxis and treatment thereof” (BLUELIGHT PHARMATECH CO., LTD., priority 2018, dated 2022).
Some entries share one result that the patent states for a list of compounds.

Test system: Plasmodium berghei ANKA 868 sporozoites
Experiment: Prophylaxis against luciferase-expressing Plasmodium berghei ANKA 868 sporozoite inoculation in C57 mice (IVIS, blood smear parasitemia, survival)
Format: in vivo
Conditions: group of 5 mice

Structure (SMILES): COc1cc(NC(C)CCCN)c2ncccc2c1 (stereo not shown) [primaquine]
- time within which all mice died after sporozoite inoculation: ≤ 30 days
